According to article PMC8455679:
Results are given in words; binding and its absence hold for the method and conditions named. Binding seen in cells or lysates may run through a third protein. A result given as binding can be weak or reduced; the word gives no strength.

Target: T1, RBFOX2 (human (endogenous in U87MG)) (UniProt O43251)
T1 sequence: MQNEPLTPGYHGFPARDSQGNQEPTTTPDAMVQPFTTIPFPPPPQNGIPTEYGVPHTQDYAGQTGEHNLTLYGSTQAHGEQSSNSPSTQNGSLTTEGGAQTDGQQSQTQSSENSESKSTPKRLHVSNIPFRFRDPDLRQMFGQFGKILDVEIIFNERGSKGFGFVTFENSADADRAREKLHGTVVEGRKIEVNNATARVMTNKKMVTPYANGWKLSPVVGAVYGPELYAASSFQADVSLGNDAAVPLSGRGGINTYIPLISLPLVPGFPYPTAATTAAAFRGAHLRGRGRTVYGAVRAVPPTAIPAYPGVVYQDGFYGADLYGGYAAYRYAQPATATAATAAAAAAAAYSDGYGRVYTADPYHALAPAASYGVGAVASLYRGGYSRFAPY
Test: co-IP; U87MG cell lysates (50 mM Tris-HCl pH 8.0, 150 mM NaCl, 0.5% NP-40, 10% glycerol, 50 U/mL benzonase) immunoprecipitated with rabbit IgG, SON antibody or RBFOX2 antibody and protein A-Sepharose at 4 °C overnight; Western blot

With hnRNP H (human (endogenous in U87MG)) as the substance, how does the binding read?
The binding was “binds”.
